According to the supplement of paper PMC8256030:
Where “and” joins values, the source holds several entries; their conditions need not be identical. Equal entries are not always repeated. Some of the results follow. This data set is noisy: repeats of one test often differ as much as different tests do.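 HEK293T cells were given each compound shortly before transfection with a reporter in which red mCherry is followed by the SARS-CoV-2 frameshift element and then GFP in the −1 frame, so GFP appears only after frameshifting.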

system: HEK293T; assay: percent viability (nuclei count) relative to control; higher = more viable cells; conditions: 10 µM; 24 h

Point of comparison: `CC[C@]12CCCN3CCc4c(n(c5ccccc45)[C@@](O)(C(=O)OC)C1)[C@@H]32`, percent viability 125%. Against it:
- CSCC[C@H](NC(=O)[C@H](Cc1c[nH]c2ccccc12)NC(=O)CCNC(=O)OC(C)(C)C)C(=O)N[C@@H](CC(=O)O)C(=O)N[C@@H](Cc1ccccc1)C(N)=O [Pentagastrin] — higher, 310%
- CCCc1ncc(C[n+]2ccccc2C)c(N)n1 [amprolium] — higher, 234%
- C=CCn1c(N)cc(=O)n(CC)c1=O [Mictine] — lower, 105%
- O=C(O)CCC/C=C\CC1C(O)CC(O)C1/C=C/C(O)COc1cccc(Cl)c1 (centres undefined) [cloprostenol] — higher, 284%
- O=C(O)c1cc(=O)c2c(OCC(O)COc3cccc4oc(C(=O)O)cc(=O)c34)cccc2o1 [Disodium Cromoglycate] — higher, 282%
- N=C(N)NC(=O)c1nc(Cl)c(N)nc1N — higher, 343%
- CCN(Cc1ccncc1)C(=O)C(CO)c1ccccc1 (centres undefined) [Tropicamide] — higher, 212%
- O=C(NCCCN1CCOCC1)c1ccc(Cl)cc1 [eprobemide] — lower, 64.1%
- CN(C)CC/C=C1/c2ccccc2COc2ccc(CC(=O)O)cc21 [olopatadine] — higher, 187%
- OC1C(O)C(O)C(O)C(O)C1O (centres undefined) — higher, 139%
- N[C@@H](Cc1cc(I)c(Oc2cc(I)c(O)c(I)c2)c(I)c1)C(=O)O [L-thyroxine] — higher, 152%
- O=C([O-])[C@H](O)[C@@H](O)[C@H](O)[C@H](O)CO.O=C([O-])[C@H](O)[C@@H](O)[C@H](O)[C@H](O)CO.[Ca+2] — higher, 197%
- CC1(C)S[C@@H]2[C@H](N3C(=O)[C@@H](c4ccccc4)NC3(C)C)C(=O)N2[C@H]1C(=O)O — higher, 135%
- CO[C@@H]1[C@@H](OC(N)=O)[C@@H](O)[C@H](Oc2ccc3c(O)c(NC(=O)c4ccc(O)c(CC=C(C)C)c4)c(=O)oc3c2C)OC1(C)C [novobiocin] — higher, 194%
- Nc1nc(O)c2ncn(CCC(CO)CO)c2n1 — higher, 336%
- O=C1C(CC[S+]([O-])c2ccccc2)C(=O)N(c2ccccc2)N1c1ccccc1 (centres undefined) [sulfinpyrazone] — higher, 158%
- CCN(CC)CCN1C(=O)c2c(c3c4cccc(Cl)c4n([C@@H]4O[C@H](CO)[C@@H](OC)[C@H](O)[C@H]4O)c3c3[nH]c4c(Cl)cccc4c23)C1=O [becatecarin] — lower, 8.61%
- C#CCN(C)Cc1ccccc1 [pargyline] — higher, 154%
- C/C(=C(\CCOP(=O)(O)O)SC(=O)c1ccccc1)N(C=O)Cc1cnc(C)nc1N [benfotiamine] — higher, 328%
- O=C(CCBr)N1CCN(C(=O)CCBr)CC1 [pipobroman] — higher, 345%
- CSCC[C@H](NC(=O)[C@H](Cc1c[nH]c2ccccc12)NC(=O)CCNC(=O)OC(C)(C)C)C(=O)N[C@@H](CC(=O)O)C(=O)N[C@@H](Cc1ccccc1)C(N)=O [pentagastrin] — higher, 164%
- C[C@]12C=CC(=O)C=C1CC[C@@H]1[C@@H]2[C@@H](O)C[C@@]2(C)[C@H]1CC[C@]2(O)C(=O)COC(=O)CCC(=O)O — higher, 309%
- NC(=O)[C@@H]1CCCN1C(=O)[C@H](Cc1c[nH]cn1)NC(=O)[C@@H]1CCC(=O)N1 [protirelin] — higher, 165%
- CCCCC1C(=O)NN(c2ccccc2)C1=O (centres undefined) [mofebutazone] — higher, 335%
- COCCc1ccccn1 [metyridine] — higher, 226%
- CCOC(=O)[C@H](CCc1ccccc1)N[C@@H](C)C(=O)N1CC2(C[C@H]1C(=O)O)SCCS2 [spirapril] — higher, 166%
- C[N+](C)(C)CCCCCC[N+](C)(C)C [hexamethonium bromide] — higher, 289%
- CCOC(=O)COc1ccc2c(C)c(CCN(CC)CC)c(=O)oc2c1 [Carbocromen] — higher, 138%
- C=CCNc1nc(NCC=C)nc(N2CCN(C(c3ccc(F)cc3)c3ccc(F)cc3)CC2)n1 [almitrine] — higher, 176%
- O=C(OCC(O)CO)c1ccccc1Nc1ccnc2c(C(F)(F)F)cccc12 (centres undefined) [floctafenine] — higher, 158%
- CO/N=C(\C(=O)N[C@@H]1C(=O)N2C(C(=O)O)=C(/C=C\c3scnc3C)CS[C@H]12)c1csc(N)n1 [Cefditoren] — higher, 305%
- Cc1cc(C(C)(C)C)cc(C)c1CC1=NCCN1 [xylometazoline] — higher, 143%
- CC1CS(=O)(=O)CCN1/N=C/c1ccc([N+](=O)[O-])o1 (centres undefined) [nifurtimox] — higher, 140%
- Cc1c2oc3c(C)ccc(C(=O)N[C@@H]4C(=O)N[C@H](C(C)C)C(=O)N5CCC[C@H]5C(=O)N(C)CC(=O)N(C)[C@@H](C(C)C)C(=O)O[C@@H]4C)c3nc-2c(C(=O)N[C@@H]2C(=O)N[C@H](C(C)C)C(=O)N3CCC[C@H]3C(=O)N(C)CC(=O)N(C)[C@@H](C(C)C)C(=O)O[C@@H]2C)c(N)c1=O [dactinomycin] — lower, 12.5%
- O=S(=O)(O)NC1CCCCC1 — higher, 361%
- CCCOc1cc(N)ccc1C(=O)OCCN(CC)CC — higher, 289%

In the case of `CCCCC[C@H](O)/C=C/[C@H]1[C@H](O)CC(=O)[C@@H]1C/C=C\CCCC(=O)O` [dinoprostone], the percent viability was 183% and 242%.
For `C[C@@H]1CN(c2c(F)c(N)c3c(=O)c(C(=O)O)cn(C4CC4)c3c2F)C[C@H](C)N1` [sparfloxacin], the percent viability was 174% and 153%.
